These are yes or no findings as the source states them, for the method shown. For some assays here: Binding seen in cells or lysates may run through a third protein. Some results given as binding are weak or reduced against the parent protein; the word gives no strength. Blank lines part the entries; values can stand above or below the substance they belong to.
Tests used:
[1] = target: TLR2 (mouse (endogenous in mouse Tregs)) (UniProt Q9QUN7); experiment: flow cytometry on cells; freshly isolated Tregs incubated with FITC-gp96, with or without excess unlabeled gp96, MSA, TLR2 Ab or TLR4 Ab; only the binder purified
[2] = target: TLR4 (mouse (endogenous in mouse Tregs)) (UniProt Q9QUK6); experiment: as above
[3] = target: GST-fused gp96 (UniProt P08113); experiment: pull-down; GST-gp96 or GST mixed with Treg lysates overnight at 4 C, Glutathione Sepharose 2 h, immunoblotting of TLR2 and TLR4; only the target purified
[4] = target: TLR2 (mouse (endogenous in mouse Tregs)) (UniProt Q9QUN7); experiment: co-IP; TLR Abs or control Ab added to Treg lysates overnight at 4 C, protein G beads 2 h, gp96 detected by Western blotting
[5] = target: TLR4 (mouse (endogenous in mouse Tregs)) (UniProt Q9QUK6); experiment: as above

Amino acid sequences for entries named in this document (tags omitted). Residues count along the entry.
UniProt Q9QUN7, residues 25-784: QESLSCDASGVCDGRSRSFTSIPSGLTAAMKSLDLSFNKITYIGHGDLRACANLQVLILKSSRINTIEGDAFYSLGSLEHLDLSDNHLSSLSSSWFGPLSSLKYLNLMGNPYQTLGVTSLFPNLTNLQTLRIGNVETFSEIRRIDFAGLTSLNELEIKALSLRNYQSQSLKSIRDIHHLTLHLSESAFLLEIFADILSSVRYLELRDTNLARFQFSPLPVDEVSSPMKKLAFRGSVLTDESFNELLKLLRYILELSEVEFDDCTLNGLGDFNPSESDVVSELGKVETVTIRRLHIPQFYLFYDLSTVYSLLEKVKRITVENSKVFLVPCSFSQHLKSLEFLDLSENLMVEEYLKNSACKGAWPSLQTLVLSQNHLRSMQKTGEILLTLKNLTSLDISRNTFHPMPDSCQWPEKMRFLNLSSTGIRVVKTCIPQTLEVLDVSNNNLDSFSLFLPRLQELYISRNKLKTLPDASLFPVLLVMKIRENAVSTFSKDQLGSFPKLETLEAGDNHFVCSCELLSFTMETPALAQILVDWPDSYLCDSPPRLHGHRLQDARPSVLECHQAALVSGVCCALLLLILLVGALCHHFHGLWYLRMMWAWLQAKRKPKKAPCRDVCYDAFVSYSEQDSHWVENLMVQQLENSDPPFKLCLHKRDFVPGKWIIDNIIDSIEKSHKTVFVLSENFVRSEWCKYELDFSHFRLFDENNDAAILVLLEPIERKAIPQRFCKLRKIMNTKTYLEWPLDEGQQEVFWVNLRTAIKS
UniProt Q9QUK6, residues 26-835: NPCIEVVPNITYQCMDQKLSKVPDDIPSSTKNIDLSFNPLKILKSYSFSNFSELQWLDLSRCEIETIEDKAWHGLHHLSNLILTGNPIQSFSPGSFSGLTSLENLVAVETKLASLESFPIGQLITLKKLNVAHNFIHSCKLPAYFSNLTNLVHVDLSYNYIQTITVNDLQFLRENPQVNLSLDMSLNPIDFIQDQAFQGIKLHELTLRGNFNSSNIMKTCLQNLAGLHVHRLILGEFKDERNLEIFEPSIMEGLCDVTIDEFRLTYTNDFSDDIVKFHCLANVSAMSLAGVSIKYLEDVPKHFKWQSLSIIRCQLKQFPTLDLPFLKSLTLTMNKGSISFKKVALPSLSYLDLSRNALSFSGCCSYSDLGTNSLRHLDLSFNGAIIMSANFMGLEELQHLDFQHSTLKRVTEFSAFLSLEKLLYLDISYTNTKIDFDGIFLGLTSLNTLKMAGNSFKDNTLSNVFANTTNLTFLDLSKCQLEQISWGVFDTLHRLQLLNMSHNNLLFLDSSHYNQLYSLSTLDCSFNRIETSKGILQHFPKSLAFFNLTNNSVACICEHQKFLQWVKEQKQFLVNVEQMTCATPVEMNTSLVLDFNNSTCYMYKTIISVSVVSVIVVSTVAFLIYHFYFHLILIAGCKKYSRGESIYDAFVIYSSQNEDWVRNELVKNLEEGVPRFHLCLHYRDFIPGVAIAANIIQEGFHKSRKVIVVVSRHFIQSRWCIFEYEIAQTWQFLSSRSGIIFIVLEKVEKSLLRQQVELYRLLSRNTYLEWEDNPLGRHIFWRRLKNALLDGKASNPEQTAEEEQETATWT
UniProt P08113, residues 22-802: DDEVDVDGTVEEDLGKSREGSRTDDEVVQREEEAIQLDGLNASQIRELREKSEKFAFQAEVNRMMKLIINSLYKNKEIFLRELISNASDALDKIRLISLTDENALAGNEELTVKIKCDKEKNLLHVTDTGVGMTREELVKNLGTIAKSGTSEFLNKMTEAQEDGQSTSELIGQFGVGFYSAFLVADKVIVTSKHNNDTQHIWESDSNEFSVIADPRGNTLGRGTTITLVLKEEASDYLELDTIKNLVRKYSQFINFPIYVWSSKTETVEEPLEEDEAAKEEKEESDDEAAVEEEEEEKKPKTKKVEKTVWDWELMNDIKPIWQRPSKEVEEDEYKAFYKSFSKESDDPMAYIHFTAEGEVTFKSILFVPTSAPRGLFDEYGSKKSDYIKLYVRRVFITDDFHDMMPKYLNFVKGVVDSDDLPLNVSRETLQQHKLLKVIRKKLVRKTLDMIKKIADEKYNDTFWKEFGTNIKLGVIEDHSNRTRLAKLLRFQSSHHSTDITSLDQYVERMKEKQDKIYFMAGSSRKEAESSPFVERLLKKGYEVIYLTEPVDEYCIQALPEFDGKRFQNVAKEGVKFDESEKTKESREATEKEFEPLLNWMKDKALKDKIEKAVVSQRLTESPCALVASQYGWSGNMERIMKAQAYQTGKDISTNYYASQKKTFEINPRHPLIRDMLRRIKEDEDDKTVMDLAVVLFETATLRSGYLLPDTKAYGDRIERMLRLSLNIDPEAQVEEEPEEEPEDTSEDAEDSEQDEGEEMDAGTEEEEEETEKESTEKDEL

- binding [1]: binds
- binding [2]: binds
Substance: FITC-labeled gp96 (from UniProt P08113 22-802)

- binding [3]: binds
Substance: TLR4 (from UniProt Q9QUK6 26-835) (receptor)

- binding [4]: binds
- binding [5]: binds
Substance: gp96 (in Treg lysates) (from UniProt P08113 22-802)
